PubChem BioAssay AID652259 | Drosophila RNAi Screening Center, 2013

Screen: 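Genome-wide hunt for genes that control Wingless pathway activity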 (primary screen)
Cell system: Drosophila clone 8 imaginal disc epithelial cells
Reagent: long dsRNA against Drosophila genes
Treatment: pathway stimulated by co-transfected Wingless expression plasmid
Measurement: 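Dual luciferase reads per well after Wingless plasmid stimulation: reporter firefly light and Renilla control light; activity is firefly divided by Renilla, a ratio not deposited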
Direction: firefly reporter light: higher = more Wg reporter light, before normalisation; Renilla control light: higher = more transfected or surviving cells
Call rule: 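a knock-down is a candidate when at least two out of four statistical tests show it departing from its plate mean; one test alone signals a weak candidate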
Calls: active = candidate regulator (raises or lowers reporter); inactive = not a candidate
In all, the deposit lists about 22,000 reagents; this is an unselected part of those that have a named target and a result. Of all reagents, 233 (1.1%) were called active. 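Light values are raw, unnormalised plate reads; the ratio scores behind the reporter calls were not deposited.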 Reagent sequences are not shown. Not given: the amount of reagent, the time to read-out, the dose of the treatment.

veg (retired record) [DRSC07714] gave firefly reporter light, replicate 1 = 6992; Renilla control light, replicate 1 = 2002; inactive.
Ac3 [DRSC03692] scored firefly reporter light, replicate 1 = 9697; Renilla control light, replicate 1 = 2027; inactive.
Lis-1 [DRSC07459] scored firefly reporter light, replicate 1 = 9130; Renilla control light, replicate 1 = 3066; inactive.
For Sf3b6 [DRSC09972], the values are firefly reporter light, replicate 1 = 1862; firefly reporter light, replicate 2 = 12668; Renilla control light, replicate 1 = 861; Renilla control light, replicate 2 = 3046; inactive.
With knock-down of Or47a [DRSC07491] the results were firefly reporter light, replicate 1 = 5105; Renilla control light, replicate 1 = 1755; inactive.
Spn42Dd [DRSC05024] scored firefly reporter light, replicate 1 = 2952; firefly reporter light, replicate 2 = 10659; Renilla control light, replicate 1 = 123; Renilla control light, replicate 2 = 5168; inactive.
With knock-down of Spn42Dd [DRSC22060] the results were firefly reporter light, replicate 1 = 5.79e5; firefly reporter light, replicate 2 = 4.81e5; Renilla control light, replicate 1 = 2.28e5; Renilla control light, replicate 2 = 2.30e5; inactive.
Depletion of Doc3 [DRSC10480] resulted in: firefly reporter light, replicate 1 = 1427; firefly reporter light, replicate 2 = 9877; Renilla control light, replicate 1 = 1020; Renilla control light, replicate 2 = 3305; inactive.
CG15445 [DRSC20517] scored firefly reporter light, replicate 1 = 1620; firefly reporter light, replicate 2 = 4876; Renilla control light, replicate 1 = 585; Renilla control light, replicate 2 = 1820; inactive.
For PIG-X [DRSC22721], the entry reads firefly reporter light, replicate 1 = 6.71e5; firefly reporter light, replicate 2 = 7.72e5; Renilla control light, replicate 1 = 1.96e5; Renilla control light, replicate 2 = 1.96e5; inactive.
With knock-down of CG8079 [DRSC07070], the record shows firefly reporter light, replicate 1 = 13953; Renilla control light, replicate 1 = 3465; inactive.
For CG8079 [DRSC07071] the deposit lists firefly reporter light, replicate 1 = 6913; Renilla control light, replicate 1 = 2099; inactive.
CG11134 [DRSC19384] showed firefly reporter light, replicate 1 = 2855; Renilla control light, replicate 1 = 1040; inactive.
Snap24 [DRSC16864] gave firefly reporter light, replicate 1 = 13846; Renilla control light, replicate 1 = 3940; inactive.
CG8248 [DRSC07124] showed firefly reporter light, replicate 1 = 6514; Renilla control light, replicate 1 = 2528; inactive.
With knock-down of pita [DRSC04006], the record shows firefly reporter light, replicate 1 = 16472; Renilla control light, replicate 1 = 6416; inactive.
pita [DRSC04435] gave firefly reporter light, replicate 1 = 12512; Renilla control light, replicate 1 = 2725; inactive.

2 of these entries, set out differently.
{"target": "CG8079", "amplicon": "DRSC07070", "firefly reporter light, replicate 1": 13953, "Renilla control light, replicate 1": 3465, "Outcome": "inactive"}
{"target": "CG8079", "amplicon": "DRSC07071", "firefly reporter light, replicate 1": 6913, "Renilla control light, replicate 1": 2099, "Outcome": "inactive"}
